Laboratory results published in article doi:10.1101/706473.
No constants are given. Whether binding was seen depends on the method and setting. Some entries that bind do so weakly or less than the wild type.

Key:
[1] = biological target: T1, Hth HM-domain (amino acids 1-242), Hth^HM (D. melanogaster) (UniProt O46339); experiment: co-purification
T1 sequence: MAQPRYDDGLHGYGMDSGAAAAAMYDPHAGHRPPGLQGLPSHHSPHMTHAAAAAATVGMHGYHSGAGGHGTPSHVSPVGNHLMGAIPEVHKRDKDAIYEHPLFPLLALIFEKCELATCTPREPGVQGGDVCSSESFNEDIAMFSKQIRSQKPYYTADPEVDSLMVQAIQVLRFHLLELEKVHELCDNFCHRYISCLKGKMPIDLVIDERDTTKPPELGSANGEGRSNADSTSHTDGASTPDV

[2] = biological target: T2, Homothorax, full-length isoform (Hth^FL) (D. melanogaster) (UniProt O46339); experiment: co-purification
T2 sequence: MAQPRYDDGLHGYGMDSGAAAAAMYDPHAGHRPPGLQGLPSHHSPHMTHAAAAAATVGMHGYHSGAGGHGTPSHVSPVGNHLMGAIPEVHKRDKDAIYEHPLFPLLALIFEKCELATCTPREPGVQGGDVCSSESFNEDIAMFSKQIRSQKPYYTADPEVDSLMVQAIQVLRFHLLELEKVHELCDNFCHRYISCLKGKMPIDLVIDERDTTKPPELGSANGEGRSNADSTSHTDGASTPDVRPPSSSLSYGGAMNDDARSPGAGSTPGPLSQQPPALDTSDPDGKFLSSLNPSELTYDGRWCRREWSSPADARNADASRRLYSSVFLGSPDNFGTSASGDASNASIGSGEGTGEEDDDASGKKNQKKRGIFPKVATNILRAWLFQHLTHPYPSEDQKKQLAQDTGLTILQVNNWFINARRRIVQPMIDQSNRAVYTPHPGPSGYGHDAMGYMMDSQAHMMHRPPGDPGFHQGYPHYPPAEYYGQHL

B1: Extradenticle (Exd), full-length (protein, UniProt P40427 1-376)
chain: MEDPNRMLAHTGGMMAPQGYGLSGQDDGQNAGSENEVRKQKDIGEILQQIMSISEQSLDEAQARKHTLNCHRMKPALFSVLCEIKEKTVLSIRNTQEEEPPDPQLMRLDNMLIAEGVAGPEKGGGGAAAASAAAASQGGSLSIDGADNAIEHSDYRAKLAQIRQIYHQELEKYEQACNEFTTHVMNLLREQSRTRPITPKEIERMVQIIHKKFSSIQMQLKQSTCEAVMILRSRFLDARRKRRNFSKQASEILNEYFYSHLSNPYPSEEAKEELARKCGITVSQVSNWFGNKRIRYKKNIGKAQEEANLYAAKKAAGASPYSMAGPPSGTTTPMMSPAPPQDSMGYPMGSGGYDQQQPYDNSMGGYDPNLHQDLSP
binding [1]: binds
binding [2]: binds
